Measurements as given in US11061016B2, “In vitro model for pathological or physiologic conditions” (HemoShear, LLC, priority 2012, dated 2021).
At least one compound was matched to its structure with a doubt left.

Tested on: hepatocytes
Experiment: Fatty liver model: Nile red staining
Type: cell-based, rat
Settings: steatotic conditions (high insulin/glucose media); pioglitazone 1.5 μM; controlled hemodynamics

Compound: CCc1ccc(CCOc2ccc(CC3SC(=O)NC3=O)cc2)nc1 (stereo not shown) [Pioglitazone, pioglitazone]
- lipid droplet formation (Nile red staining): decreases
